The supplement of paper PMC9233669
Variants at the floor of the assay are shown more often than the library holds them.

Key:
biotinyl-Trp-oxazolone = experiment: self-aminoacylation, catalytic enhancement (BWO) (fold over background); higher = more active; k-Seq, kA / k0A0; sequences stand for … in GGGAAUGGAUCCACAUCUACGAAUUC…UUCACUGCAGACUUGACGAAGCUG
Outline: (§1)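 Catalytic enhancement equals the median kA over the uncatalyzed rate, the latter read from the low-activity peak of a bimodal Gaussian fit. Values of kA came from fitting each sequence's fraction reacted to a pseudo-first-order model, with 1000 bootstraps. Reacted RNA was captured with streptavidin and quantified by triplicate qPCR and Illumina sequencing after 90 minutes at room temperature with 2–1250 μM biotinyl-aminoacyl-oxazolone and 0.43 μM mutagenized RNA pools bearing a 21-nt variable region.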

biotinyl-Leu-oxazolone = experiment: self-aminoacylation, catalytic enhancement (BLO) (fold over background); higher = more active; k-Seq, kA / k0A0; sequences stand for … in GGGAAUGGAUCCACAUCUACGAAUUC…UUCACUGCAGACUUGACGAAGCUG
Outline: as §1

biotinyl-Val-oxazolone = experiment: self-aminoacylation, catalytic enhancement (BVO) (fold over background); higher = more active; k-Seq, kA / k0A0; sequences stand for … in GGGAAUGGAUCCACAUCUACGAAUUC…UUCACUGCAGACUUGACGAAGCUG
Outline: as §1

biotinyl-Ile-oxazolone = experiment: self-aminoacylation, catalytic enhancement (BIO) (fold over background); higher = more active; k-Seq, kA / k0A0; sequences stand for … in GGGAAUGGAUCCACAUCUACGAAUUC…UUCACUGCAGACUUGACGAAGCUG
Outline: as §1

biotinyl-Met-oxazolone = experiment: self-aminoacylation, catalytic enhancement (BMO) (fold over background); higher = more active; k-Seq, kA / k0A0; sequences stand for … in GGGAAUGGAUCCACAUCUACGAAUUC…UUCACUGCAGACUUGACGAAGCUG
Outline: as §1

biotinyl-Phe-oxazolone = experiment: self-aminoacylation, catalytic enhancement (BFO) (fold over background); higher = more active; k-Seq, kA / k0A0; sequences stand for … in GGGAAUGGAUCCACAUCUACGAAUUC…UUCACUGCAGACUUGACGAAGCUG
Outline: as §1

Sequence	self-aminoacylation (biotinyl-Trp-oxazolone)	self-aminoacylation (biotinyl-Leu-oxazolone)	self-aminoacylation (biotinyl-Val-oxazolone)	self-aminoacylation (biotinyl-Ile-oxazolone)	self-aminoacylation (biotinyl-Met-oxazolone)	self-aminoacylation (biotinyl-Phe-oxazolone)
CCACACUUUAAGCAAUCGUUC [Fam1B.1 aminoacylation ribozyme variant]	0.575	0.543	0.849	0.669	0.566	0.911
CCACAGUGCAAGCAAUCGGUC [Fam1B.1 aminoacylation ribozyme variant]	0.903	1.13	1.22	1.09	1.02	0.719
CCACAGUUCAAGCAAGCGGUC [Fam1B.1 aminoacylation ribozyme variant]	0.602	0.952	1.11	1.17	1.25	0.797
CCACAGUUCAAGCAAUCGGAC [Fam1B.1 aminoacylation ribozyme variant]	0.61	0.719	0.965	1.08	1.14	0.525
CCACAGUUCUAGCAAUCGGUC [Fam1B.1 aminoacylation ribozyme variant]	1.05	0.675	0.814	0.955	0.79	0.904
CCACAUUUCAAGCAAUCAGUC [Fam1B.1 aminoacylation ribozyme variant]	0.884	0.906	1.1	1	0.755	1.71
CCACAUUUCAAGCAAUCGGAC [Fam1B.1 aminoacylation ribozyme variant]	0.924	1.07	1.21	1.3	1.04	0.953
CCACCCUCCAAGCAAUCGGUC [Fam1B.1 aminoacylation ribozyme variant]	1.86	0.954	1.39	1.3	1.07	1.98
CCACCCUUCAAGCAAUGGGUC [Fam1B.1 aminoacylation ribozyme variant]	1.34	0.924	1.21	1.01	1.11	0.896
CCACCCUUCAUGCAAUCGGUC [Fam1B.1 aminoacylation ribozyme variant]	0.939	0.928	1.02	1.05	0.84	1.07
CCACGCUUCAAGCAAGCGGUC [Fam1B.1 aminoacylation ribozyme variant]	0.5	0.546	0.921	0.777	0.691	0.534
CCACGCUUCAAGCACUCGGUC [Fam1B.1 aminoacylation ribozyme variant]	0.81	0.819	1.29	0.855	0.938	0.769
CCACGCUUCAAGCAGUCGGUC [Fam1B.1 aminoacylation ribozyme variant]	0.91	0.887	1.33	0.755	1.03	1
CCACGCUUCAAGCCAUCGGUC [Fam1B.1 aminoacylation ribozyme variant]	0.848	1.31	1.67	1.05	0.915	0.912
CCACUCUUCAAGCAACCGGUC [Fam1B.1 aminoacylation ribozyme variant]	1.3	1.25	1.26	1.62	1.05	1.17
CCACUCUUCAAGCAAUCGGAC [Fam1B.1 aminoacylation ribozyme variant]	1.15	0.661	0.937	0.984	0.787	0.832
CCACUCUUCAAGCAAUCUGUC [Fam1B.1 aminoacylation ribozyme variant]	0.29	0.354	0.581	0.437	0.363	0.664
CCACUCUUCAGGCAAUCGGUC [Fam1B.1 aminoacylation ribozyme variant]	1.23	1.33	1.49	1.31	1.34	0.929
CCACUUCAAACAAACGGUCUG [Fam1A.1 aminoacylation ribozyme variant]	0.592	0.609	0.815	0.894	1.19	0.554
CCACUUCAAACAAGCGGUCUG [Fam1A.1 aminoacylation ribozyme variant]	1.34	1.26	0.896	1.12	1.07	0.647
CCACUUUAAACAAUCGGUCUG [Fam1A.1 aminoacylation ribozyme variant]	1.18	1.01	0.912	1.03	1.17	1.58
